Results deposited as PubChem BioAssay AID493246 (Drosophila RNAi Screening Center, 2011).

Test: 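Identify essential fly genes by loss of cell viability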 (primary screen)
Cell system: Drosophila Kc and S2R+ cells
Reagents: long dsRNA against Drosophila genes
Detection: 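Raw, unnormalised count of remaining cells in each well; per-plate z-scores of cell number underlie the calls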
Reading the numbers: Kc cell number and S2R+ cell number: higher = more cells remaining
Active means: 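Counted as a hit if cell number falls by a z-score of at least 3 within its plate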
The screen tested about 21,000 reagents; this is a random part of those that have a named target and a result. Of all reagents, 429 (2%) got an active call. 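Values are raw and not normalised between plates; calls rest on per-plate z-scores that were not deposited.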 A plus sign joins genes that one reagent is predicted to hit. The record does not give: the amount of reagent, the time to read-out.

target gene | dsRNA | Kc cell number, rep 1 | Kc cell number, rep 2 | S2R+ cell number, rep 1 | S2R+ cell number, rep 2 | call
CG32461 | DRSC11594 | 1.56e6 | 1.62e6 | 1.16e6 | 1.35e6 | inactive
CG8237 | DRSC07119 | 1.45e6 | 1.50e6 | 9.46e5 | 1.04e6 | inactive
CG42376 + cin | DRSC18752 | 5.04e5 | – | 8.39e5 | – | inactive
laza | DRSC11661 | 1.65e6 | 1.70e6 | 1.25e6 | 1.31e6 | inactive
CG18766 | DRSC15936 | 4.75e5 | – | 8.41e5 | – | inactive
Alg1 | DRSC15297 | 1.51e6 | 1.59e6 | 1.22e6 | 1.26e6 | inactive
Rbfox1 | DRSC09034 | 1.37e6 | 1.34e6 | 9.85e5 | 1.11e6 | inactive
Rbfox1 | DRSC10157 | 1.02e6 | 7.05e5 | 4.08e5 | 5.49e5 | active
Rbfox1 | DRSC10320 | 1.56e6 | 1.54e6 | 1.07e6 | 1.30e6 | inactive
CG7368 | DRSC10826 | 1.50e6 | 1.42e6 | 9.53e5 | 1.09e6 | inactive
Dhfr | DRSC16646 | 1.43e6 | 1.42e6 | 1.22e6 | 1.24e6 | inactive
Dlip3 | DRSC07401 | 1.76e6 | 1.84e6 | 1.12e6 | 1.20e6 | inactive
Lip3 | DRSC16727 | 1.42e6 | 1.38e6 | 1.08e6 | 1.21e6 | inactive
Vha100-3 | DRSC05760 | 5.08e5 | – | 8.04e5 | – | inactive
Art4 | DRSC15779 | 1.73e6 | 1.71e6 | 1.40e6 | 1.52e6 | inactive

Targets above whose gene name begins with A or a (2):
target gene | dsRNA | Kc cell number, rep 1 | Kc cell number, rep 2 | S2R+ cell number, rep 1 | S2R+ cell number, rep 2 | call
Alg1 | DRSC15297 | 1.51e6 | 1.59e6 | 1.22e6 | 1.26e6 | inactive
Art4 | DRSC15779 | 1.73e6 | 1.71e6 | 1.40e6 | 1.52e6 | inactive

More reagents follow.
target gene | dsRNA | Kc cell number, rep 1 | Kc cell number, rep 2 | S2R+ cell number, rep 1 | S2R+ cell number, rep 2 | call
CG2701 | DRSC18590 | 5.31e5 | – | 8.36e5 | – | inactive
nes | DRSC11375 | 1.56e6 | 1.62e6 | 1.30e6 | 1.45e6 | inactive
CG3251 | DRSC00586 | 1.70e6 | 1.80e6 | 1.32e6 | 1.43e6 | inactive
Sbat | DRSC00160 | 1.44e6 | 1.48e6 | 1.03e6 | 1.13e6 | inactive
Usp16-45 | DRSC18352 | 5.55e5 | – | 8.68e5 | – | inactive
CG11162 | DRSC19391 | 1.63e6 | 1.54e6 | 1.16e6 | 1.24e6 | inactive
CG13380 + CG4174 | DRSC09988 | 1.55e6 | 1.53e6 | 1.29e6 | 1.30e6 | inactive
CG13380 + CG4174 | DRSC10406 | 1.35e6 | 1.52e6 | 1.30e6 | 1.37e6 | inactive
CG9839 | DRSC16574 | 1.45e6 | 1.56e6 | 1.17e6 | 1.28e6 | inactive
